From paper PMC3695940 come the findings set out here.

Results are given in words; binding and its absence hold for the method and conditions named. Binding can be weak; no strength is given. Where a sequence is shown, tags or fusion partners need not be part of it.

In assay [1] the target is T1, recombinant EhCFIm25 protein (25 kDa subunit of Cleavage Factor Im of Entamoeba histolytica) (Entamoeba histolytica) (UniProt C4M2T1).
T1 sequence: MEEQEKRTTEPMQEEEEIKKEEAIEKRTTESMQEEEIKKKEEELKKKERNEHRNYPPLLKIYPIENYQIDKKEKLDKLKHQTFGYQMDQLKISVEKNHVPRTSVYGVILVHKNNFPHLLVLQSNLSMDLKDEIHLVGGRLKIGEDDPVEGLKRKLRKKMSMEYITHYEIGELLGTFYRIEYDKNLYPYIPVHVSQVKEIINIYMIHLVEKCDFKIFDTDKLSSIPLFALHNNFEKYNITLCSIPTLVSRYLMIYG
As to the kind of experiment: far-Western; purified rEhCFIm25 (50 ug) after 10% SDS-PAGE on nitrocellulose; incubated 4 h at room temperature with rEhPAP (50 ug/ml) in 200 mM NaCl - Tween 5%; detected with mouse anti-EhPAP antibodies; both purified.

In assay [2] the target is recombinant EhPAP protein (poly(A) polymerase of Entamoeba histolytica) (Entamoeba histolytica). Kind of assay: far-Western; purified rEhPAP (50 ug) after SDS-PAGE on nitrocellulose; incubated with purified rEhCFIm25 in the same conditions (200 mM NaCl - Tween 5%); detected with rabbit anti-EhCFIm25 antibodies; both purified.

On to “recombinant EhPAP protein (poly(A) polymerase of Entamoeba histolytica) (enzyme)”, for which the binding result in assay [1] was “binds”.

B1: recombinant EhCFIm25 protein (25 kDa subunit of Cleavage Factor Im of Entamoeba histolytica) (protein, UniProt C4M2T1 1-255)
chain: T1 sequence
B1: the binding entry in assay [2] is “binds”.
